The record followed here is publication PMC5601636.

The target of this assay is nonerythroid αII spectrin (human (endogenous in A549)) (UniProt Q13813). Kind of assay: co-IP; lysate (20 mM Tris-HCl, 150 mM NaCl, 0.5% Nonidet P-40, 2 mM EDTA, 0.5 mM DTT, pH 7.5) precipitated with anti-αII Sp antibody or IgG and protein G-agarose; western blot for αII Sp, FANCA and XPF; cells transfected with scrambled ncRNA, miR-128-3p mimic, miR-128-3p inhibitor or SPTAN1 siRNA. (Immunoblotting shows a protein as a band on a membrane.)

No constants are given. Whether binding was seen depends on the method and setting. In cells and extracts the contact can be indirect. Some entries that bind do so weakly or less than the wild type.

B1: FANCA (protein, UniProt O15360 1-1455)
chain: MSDSWVPNSASGQDPGGRRRAWAELLAGRVKREKYNPERAQKLKESAVRLLRSHQDLNALLLEVEGPLCKKLSLSKVIDCDSSEAYANHSSSFIGSALQDQASRLGVPVGILSAGMVASSVGQICTAPAETSHPVLLTVEQRKKLSSLLEFAQYLLAHSMFSRLSFCQELWKIQSSLLLEAVWHLHVQGIVSLQELLESHPDMHAVGSWLFRNLCCLCEQMEASCQHADVARAMLSDFVQMFVLRGFQKNSDLRRTVEPEKMPQVTVDVLQRMLIFALDALAAGVQEESSTHKIVRCWFGVFSGHTLGSVISTDPLKRFFSHTLTQILTHSPVLKASDAVQMQREWSFARTHPLLTSLYRRLFVMLSAEELVGHLQEVLETQEVHWQRVLSFVSALVVCFPEAQQLLEDWVARLMAQAFESCQLDSMVTAFLVVRQAALEGPSAFLSYADWFKASFGSTRGYHGCSKKALVFLFTFLSELVPFESPRYLQVHILHPPLVPGKYRSLLTDYISLAKTRLADLKVSIENMGLYEDLSSAGDITEPHSQALQDVEKAIMVFEHTGNIPVTVMEASIFRRPYYVSHFLPALLTPRVLPKVPDSRVAFIESLKRADKIPPSLYSTYCQACSAAEEKPEDAALGVRAEPNSAEEPLGQLTAALGELRASMTDPSQRDVISAQVAVISERLRAVLGHNEDDSSVEISKIQLSINTPRLEPREHMAVDLLLTSFCQNLMAASSVAPPERQGPWAALFVRTMCGRVLPAVLTRLCQLLRHQGPSLSAPHVLGLAALAVHLGESRSALPEVDVGPPAPGAGLPVPALFDSLLTCRTRDSLFFCLKFCTAAISYSLCKFSSQSRDTLCSCLSPGLIKKFQFLMFRLFSEARQPLSEEDVASLSWRPLHLPSADWQRAALSLWTHRTFREVLKEEDVHLTYQDWLHLELEIQPEADALSDTERQDFHQWAIHEHFLPESSASGGCDGDLQAACTILVNALMDFHQSSRSYDHSENSDLVFGGRTGNEDIISRLQEMVADLELQQDLIVPLGHTPSQEHFLFEIFRRRLQALTSGWSVAASLQRQRELLMYKRILLRLPSSVLCGSSFQAEQPITARCEQFFHLVNSEMRNFCSHGGALTQDITAHFFRGLLNACLRSRDPSLMVDFILAKCQTKCPLILTSALVWWPSLEPVLLCRWRRHCQSPLPRELQKLQEGRQFASDFLSPEAASPAPNPDWLSAAALHFAIQQVREENIRKQLKKLDCEREELLVFLFFFSLMGLLSSHLTSNSTTDLPKAFHVCAAILECLEKRKISWLALFQLTESDLRLGRLLLRVAPDQHTRLLPFAFYSLLSYFHEDAAIREEAFLHVAVDMYLKLVQLFVAGDTSTVSPPAGRSLELKGQGNPVELITKARLFLLQLIPRCPKKSFSHVAELLADRGDCDPEVSAALQSRQQAAPDADLSQEPHLF
In the case of B1, the binding entry is “binds”.

B2: XPF (protein, UniProt Q92889 1-916)
chain: MESGQPARRIAMAPLLEYERQLVLELLDTDGLVVCARGLGADRLLYHFLQLHCHPACLVLVLNTQPAEEEYFINQLKIEGVEHLPRRVTNEITSNSRYEVYTQGGVIFATSRILVVDFLTDRIPSDLITGILVYRAHRIIESCQEAFILRLFRQKNKRGFIKAFTDNAVAFDTGFCHVERVMRNLFVRKLYLWPRFHVAVNSFLEQHKPEVVEIHVSMTPTMLAIQTAILDILNACLKELKCHNPSLEVEDLSLENAIGKPFDKTIRHYLDPLWHQLGAKTKSLVQDLKILRTLLQYLSQYDCVTFLNLLESLRATEKAFGQNSGWLFLDSSTSMFINARARVYHLPDAKMSKKEKISEKMEIKEGEETKKELVLESNPKWEALTEVLKEIEAENKESEALGGPGQVLICASDDRTCSQLRDYITLGAEAFLLRLYRKTFEKDSKAEEVWMKFRKEDSSKRIRKSHKRPKDPQNKERASTKERTLKKKKRKLTLTQMVGKPEELEEEGDVEEGYRREISSSPESCPEEIKHEEFDVNLSSDAAFGILKEPLTIIHPLLGCSDPYALTRVLHEVEPRYVVLYDAELTFVRQLEIYRASRPGKPLRVYFLIYGGSTEEQRYLTALRKEKEAFEKLIREKASMVVPEEREGRDETNLDLVRGTASADVSTDTRKAGGQEQNGTQQSIVVDMREFRSELPSLIHRRGIDIEPVTLEVGDYILTPEMCVERKSISDLIGSLNNGRLYSQCISMSRYYKRPVLLIEFDPSKPFSLTSRGALFQEISSNDISSKLTLLTLHFPRLRILWCPSPHATAELFEELKQSKPQPDAATALAITADSETLPESEKYNPGPQDFLLKMPGVNAKNCRSLMHHVKNIAELAALSQDELTSILGNAANAKQLYDFIHTSFAEVVSKGKGKK
In the case of B2, the binding entry is listed as “binds”.
